# According to PubChem BioAssay AID256 (DTP/NCI, 2004):
# The list does not hold the whole screen: it is rich in T/C values a quarter to a half above the control, in often repeated tests (any T/C) and in doses without a T/C. Further doses and runs are listed elsewhere. T/C is the treated group as % of the vehicle group. Some doses have a count of surviving animals in place of a T/C: the source holds a T/C of zero for them, seemingly a mark for toxic or unscored doses. Some doses without a T/C left all or most animals alive at the check, yet need not have been tolerated: the source hardly ever lists a survival T/C far under the control, and the zero likely stands for such cases as well. Survivors were counted at the toxicity check, usually on the fifth day, unless a day is given; later deaths do not show. Schedule codes are those of the source, taken here to give the interval after Q, in days (D) or hours (H), and the number of doses after X. Some entries were tested several times; the results are listed from low to high. For survival time, this PubChem deposit counts one and a half times the control or more as active, and values a quarter to a half above the control carry no call in these data; other NCI protocols may use other cut-offs. Some T/C values are followed by the survivors on the day toxicity was checked, most often the fifth; where none is given, no animal had died by that day.
# Tested on: CD2F1 mice, L1210 leukemia ip, survival T/C
# Experiment: NCI In Vivo Anticancer Drug Screen. Data for tumor model L1210 Leukemia (intraperitoneal) in CD2F1 (CDF1) mice
# Settings: higher T/C = longer survival
# Procedure, shortened: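 Tumor-bearing mice (transplanted tumor) were split into treated and vehicle control groups, and the measured endpoint of each treated group was divided by that of its vehicle controls.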
compound,measurement,setting,value
S=P(N1CC1)(N1CC1)N1CC1,T/C,"T/C endpoint: mean survival time, dose: 1.0 mg/kg/injection, schedule: Q03HX024 (ip), vehicle: saline",140 % of control
same,T/C,"T/C endpoint: mean survival time, dose: 2.0 mg/kg/injection, schedule: Q01DX007 (ip), vehicle: saline",128 % of control
same,T/C,"T/C endpoint: mean survival time, dose: 2.0 mg/kg/injection, schedule: Q01DX009 (sc), vehicle: saline",127 % of control
same,T/C,"T/C endpoint: mean survival time, dose: 3.0 mg/kg/injection, schedule: Q01DX009 (ip), vehicle: saline",138 % of control
same,T/C,"T/C endpoint: mean survival time, dose: 4.0 mg/kg/injection, schedule: Q01DX005 (iv), vehicle: saline",134 % of control
same,T/C,"T/C endpoint: mean survival time, dose: 4.0 mg/kg/injection, schedule: Q01DX009 (sc), vehicle: saline",148 % of control
same,T/C,"T/C endpoint: mean survival time, dose: 4.0 mg/kg/injection, schedule: Q03DX003 (ip), vehicle: saline",128 % of control
same,survivor count,"T/C endpoint: mean survival time, dose: 4.0 mg/kg/injection, schedule: Q03HX008 (ip), vehicle: saline",7 of 10
same,survivor count,"T/C endpoint: mean survival time, dose: 4.0 mg/kg/injection, schedule: Q03HX016 (ip), vehicle: saline",9 of 10
same,survivor count,"T/C endpoint: mean survival time, dose: 4.0 mg/kg/injection, schedule: Q03HX024 (ip), vehicle: saline",8 of 10
same,T/C,"T/C endpoint: mean survival time, dose: 4.0 mg/kg/injection, schedule: Q04DX003 (ip), vehicle: saline",140 % of control
same,T/C,"T/C endpoint: mean survival time, dose: 5.0 mg/kg/injection, schedule: Q04DX003 (ip), vehicle: saline",133 % of control
same,T/C,"T/C endpoint: mean survival time, dose: 6.0 mg/kg/injection, schedule: Q01DX009 (ip), vehicle: saline",128 % of control
same,T/C,"T/C endpoint: mean survival time, dose: 8.0 mg/kg/injection, schedule: Q01DX001 (iv), vehicle: saline",128 % of control
same,T/C,"T/C endpoint: mean survival time, dose: 8.0 mg/kg/injection, schedule: Q01DX005 (iv), vehicle: saline",148 % of control
same,T/C,"T/C endpoint: mean survival time, dose: 8.0 mg/kg/injection, schedule: Q01DX009 (oral), vehicle: saline",148 % of control
same,survivor count,"T/C endpoint: mean survival time, dose: 8.0 mg/kg/injection, schedule: Q03HX008 (ip), vehicle: saline",2 of 10
same,survivor count,"T/C endpoint: mean survival time, dose: 8.0 mg/kg/injection, schedule: Q03HX016 (ip), vehicle: saline",5 of 10
same,survivor count,"T/C endpoint: mean survival time, dose: 8.0 mg/kg/injection, schedule: Q03HX024 (ip), vehicle: saline",6 of 10
same,T/C,"T/C endpoint: mean survival time, dose: 10.0 mg/kg/injection, schedule: Q01DX001 (ip), vehicle: saline",130 % of control
same,T/C,"T/C endpoint: mean survival time, dose: 11.0 mg/kg/injection, schedule: Q01DX001 (ip), vehicle: saline","136, 142, 147 % of control"
same,survivor count,"T/C endpoint: mean survival time, dose: 12.0 mg/kg/injection, schedule: Q01DX009 (ip), vehicle: saline",10 of 10
same,T/C,"T/C endpoint: mean survival time, dose: 15.7 mg/kg/injection, schedule: Q01DX001 (ip), vehicle: saline with Tween-80",137 % of control
same,T/C,"T/C endpoint: mean survival time, dose: 15.7 mg/kg/injection, schedule: Q01DX001 (ip), vehicle: saline",133 and 149 % of control
same,T/C,"T/C endpoint: mean survival time, dose: 16.0 mg/kg/injection, schedule: Q01DX001 (oral), vehicle: saline",147 % of control
same,T/C,"T/C endpoint: mean survival time, dose: 16.0 mg/kg/injection, schedule: Q01DX001 (sc), vehicle: saline",144 % of control
same,survivor count,"T/C endpoint: mean survival time, dose: 16.0 mg/kg/injection, schedule: Q01DX005 (iv), vehicle: saline",10 of 10
same,survivor count,"T/C endpoint: mean survival time, dose: 16.0 mg/kg/injection, schedule: Q01DX009 (ip), vehicle: saline",9 of 10
same,survivor count,"T/C endpoint: mean survival time, dose: 16.0 mg/kg/injection, schedule: Q01DX009 (sc), vehicle: saline",10 of 10
same,T/C,"T/C endpoint: mean survival time, dose: 16.0 mg/kg/injection, schedule: Q08DX002 (ip), vehicle: saline",130 % of control [9 of 10 alive]
same,T/C,"T/C endpoint: mean survival time, dose: 17.0 mg/kg/injection, schedule: Q01DX001 (ip), vehicle: saline","157, 167, 222 % of control"
same,survivor count,"T/C endpoint: mean survival time, dose: 24.0 mg/kg/injection, schedule: Q01DX001 (ip), vehicle: saline",2 of 6
same,survivor count,"T/C endpoint: mean survival time, dose: 24.0 mg/kg/injection, schedule: Q01DX009 (ip), vehicle: saline",8 of 10
same,T/C,"T/C endpoint: mean survival time, dose: 25.0 mg/kg/injection, schedule: Q01DX001 (ip), vehicle: saline","161, 262, 296 % of control"
same,survivor count,"T/C endpoint: mean survival time, dose: 32.0 mg/kg/injection, schedule: Q01DX001 (ip), vehicle: saline",2 of 10 and 4 of 6
same,survivor count,"T/C endpoint: mean survival time, dose: 32.0 mg/kg/injection, schedule: Q01DX001 (iv), vehicle: saline",6 of 10
same,survivor count,"T/C endpoint: mean survival time, dose: 32.0 mg/kg/injection, schedule: Q01DX001 (sc), vehicle: saline",5 of 10
same,survivor count,"T/C endpoint: mean survival time, dose: 32.0 mg/kg/injection, schedule: Q01DX009 (oral), vehicle: saline",9 of 10
same,survivor count,"T/C endpoint: mean survival time, dose: 32.0 mg/kg/injection, schedule: Q04DX003 (ip), vehicle: saline",3 of 10
same,survivor count,"T/C endpoint: mean survival time, dose: 32.0 mg/kg/injection, schedule: Q08DX002 (ip), vehicle: saline",2 of 10
same,survivor count,"T/C endpoint: mean survival time, dose: 48.0 mg/kg/injection, schedule: Q01DX001 (ip), vehicle: saline",1 of 6
same,survivor count,"T/C endpoint: mean survival time, dose: 64.0 mg/kg/injection, schedule: Q01DX001 (ip), vehicle: saline",0 of 10
same,survivor count,"T/C endpoint: mean survival time, dose: 64.0 mg/kg/injection, schedule: Q01DX001 (iv), vehicle: saline",5 of 10
same,survivor count,"T/C endpoint: mean survival time, dose: 64.0 mg/kg/injection, schedule: Q01DX001 (oral), vehicle: saline",3 of 10
same,survivor count,"T/C endpoint: mean survival time, dose: 64.0 mg/kg/injection, schedule: Q01DX001 (sc), vehicle: saline",3 of 10
same,survivor count,"T/C endpoint: mean survival time, dose: 64.0 mg/kg/injection, schedule: Q01DX009 (oral), vehicle: saline",3 of 10
same,survivor count,"T/C endpoint: mean survival time, dose: 64.0 mg/kg/injection, schedule: Q04DX003 (ip), vehicle: saline",0 of 10
same,survivor count,"T/C endpoint: mean survival time, dose: 64.0 mg/kg/injection, schedule: Q08DX002 (ip), vehicle: saline",1 of 10
same,survivor count,"T/C endpoint: mean survival time, dose: 96.0 mg/kg/injection, schedule: Q01DX001 (ip), vehicle: saline",3 of 6
same,survivor count,"T/C endpoint: mean survival time, dose: 128.0 mg/kg/injection, schedule: Q01DX001 (oral), vehicle: saline",2 of 10
same,survivor count,"T/C endpoint: mean survival time, dose: 256.0 mg/kg/injection, schedule: Q01DX001 (oral), vehicle: saline",4 of 10
same,T/C,"T/C endpoint: median survival time, dose: 1.0 mg/kg/injection, schedule: Q01DX009 (ip), vehicle: water, evaluated on day 5",96 and 107 % of control
same,T/C,"T/C endpoint: median survival time, dose: 1.0 mg/kg/injection, schedule: Q01DX009 (ip), vehicle: water, evaluated on day 23",96 % of control
same,T/C,"T/C endpoint: median survival time, dose: 1.0 mg/kg/injection, schedule: Q01DX009 (ip), vehicle: water, evaluated on day 30",107 % of control
same,T/C,"T/C endpoint: median survival time, dose: 1.56 mg/kg/injection, schedule: Q01DX009 (ip), vehicle: saline",128 % of control
same,T/C,"T/C endpoint: median survival time, dose: 2.0 mg/kg/injection, schedule: Q01DX009 (ip), vehicle: water, evaluated on day 5",97 and 133 % of control
same,T/C,"T/C endpoint: median survival time, dose: 2.0 mg/kg/injection, schedule: Q01DX009 (ip), vehicle: water, evaluated on day 23",97 % of control
same,T/C,"T/C endpoint: median survival time, dose: 2.0 mg/kg/injection, schedule: Q01DX009 (ip), vehicle: water, evaluated on day 30",133 % of control
same,T/C,"T/C endpoint: median survival time, dose: 4.0 mg/kg/injection, schedule: Q01DX009 (ip), vehicle: water, evaluated on day 5",97 and 166 % of control
same,T/C,"T/C endpoint: median survival time, dose: 4.0 mg/kg/injection, schedule: Q01DX009 (ip), vehicle: water, evaluated on day 23",97 % of control
same,T/C,"T/C endpoint: median survival time, dose: 4.0 mg/kg/injection, schedule: Q01DX009 (ip), vehicle: water, evaluated on day 30",166 % of control [7 of 8 alive]
same,T/C,"T/C endpoint: median survival time, dose: 6.25 mg/kg/injection, schedule: Q01DX009 (ip), vehicle: saline",141 and 142 % of control
same,T/C,"T/C endpoint: median survival time, dose: 10.0 mg/kg/injection, schedule: Q01DX001 (ip), vehicle: saline",128 % of control
same,T/C,"T/C endpoint: median survival time, dose: 15.0 mg/kg/injection, schedule: Q01DX001 (ip), vehicle: saline",142 % of control
same,survivor count,"T/C endpoint: median survival time, dose: 16.0 mg/kg/injection, schedule: Q01DX009 (ip), vehicle: water",8 of 8
Clc1ccc2nc(C(Cl)(Cl)Cl)nc(NCCN3CCCCC3)c2c1,survivor count,"T/C endpoint: mean survival time, dose: 100.0 mg/kg/injection, schedule: Q04DX003 (ip), vehicle: saline with Tween-80",5 of 6
same,survivor count,"T/C endpoint: mean survival time, dose: 400.0 mg/kg/injection, schedule: Q04DX003 (ip), vehicle: saline with Tween-80",5 of 6
C=CC1(C)CC(=O)C2(O)C(C)(O1)C(OC(C)=O)C(O)C1C(C)(C)CCC(O)C12C (stereo unspecified),survivor count,"T/C endpoint: median survival time, dose: 32.0 mg/kg/injection, schedule: Q01DX005 (ip), vehicle: other",3 of 6
same,survivor count,"T/C endpoint: median survival time, dose: 64.0 mg/kg/injection, schedule: Q01DX005 (ip), vehicle: other",0 of 6
c1cc2c(ncn3nnnc23)[nH]1,survivor count,"T/C endpoint: mean survival time, dose: 200.0 mg/kg/injection, schedule: Q01DX009 (ip), vehicle: Klucel (hydroxypropylcellulose) (HPC)",0 of 5
same,survivor count,"T/C endpoint: mean survival time, dose: 400.0 mg/kg/injection, schedule: Q01DX009 (ip), vehicle: Klucel (hydroxypropylcellulose) (HPC)",0 of 5
